{"source": "PubChem BioAssay AID1508600", "about": "(Functional Genomics Laboratory (NCATS/FGL), 2020)", "note": "The whole screen tested about 53,000 sequences, of which about 3,700 (7%) were called active.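 Rule for the calls: active = gene knockdowns whose robust z-score for IL-1 alpha signal is at least 2 or at most -2, so actives lie on both sides; inactive = the rest.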 This is one part of the list."}
{"assay": "Components of the Cytosolic LPS Sensing Pathway: Gene Identification via Genome-wide siRNA Screen;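 note: robust z of the log signal after scaling to non-targeting control siRNA wells of the plate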", "details": "RAW264.7 macrophages, IL-1a HTRF, actives lie on both sides, screened at 100 nM (by protocol), cells primed 5 h with Pam3CSK4 first", "method_in_brief": "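Cells (RAW264.7, 1×10^4 per well) were transfected with siRNA at 100 nM and cultured 48h at 37 degrees C. Pam3CSK4 was added for 5 hours; LipidA transfection followed for 24 hour. IL-1a was then measured by HTRF.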"}
{"sequence": "GCUCUCGACUCUUUACACUTT against Nfatc2ip", "z-score": "inactive: 0.423"}
{"sequence": "GCAAUUAUAACUUAGAAGGTT against Eml3", "z-score": "inactive: 0.149"}
{"sequence": "GGUUGUCUCUUGAGAAUGATT against Cst10", "z-score": "inactive: -0.345"}
{"sequence": "GGAAUGGUAGCCACUGUUATT against Klrg1", "z-score": "inactive: -0.339"}
{"sequence": "GGCCUUGAUGCCAUUGUAATT against Rnf115", "z-score": "inactive: -0.763"}
{"sequence": "CCUCGCUUAUGUCAAUAAUTT against Fabp12", "z-score": "inactive: -1.16"}
{"sequence": "GGAAUACCAGGAAUACGAGTT against Sncb", "z-score": "inactive: -0.517"}
{"sequence": "GCUGAAAAGCAGAAGCCACTT against 2610028H24Rik", "z-score": "inactive: -0.795"}
{"sequence": "GCAAGGCCUAAUGGUCAGATT against Cnga3", "z-score": "inactive: -0.813"}
{"sequence": "GCAGCUUUAGGUCCAUUCGTT against Pkd2l2", "z-score": "inactive: -0.696"}
{"sequence": "GGAGAAAUGGGUAAAAACUTT against Paral1", "z-score": "inactive: 0.296"}
{"sequence": "CCAGUUUGAUGGUAGACAATT against Tifa", "z-score": "inactive: -1.38"}
{"sequence": "GGAUCUGCUGAUGCUUCCATT against Cstf1", "z-score": "inactive: -0.657"}
{"sequence": "GCUAUGAGAUGUAUCCCGGTT against Pramel27", "z-score": "inactive: -0.283"}
{"sequence": "GGAAAAGGUUUCUUCUAAATT against Nlrp2", "z-score": "inactive: 0.635"}
{"sequence": "GUAGCAGAGGCUUCACUAUTT against Ndufaf3", "z-score": "inactive: -1.58"}
{"sequence": "CGCAGCAGGAAUCAGGAAUTT against Tsr1", "z-score": "inactive: 0.222"}
{"sequence": "GGUAGACUUCAUCCUAGGCTT against Olfr62", "z-score": "inactive: 0.548"}
{"sequence": "GCUUGGAAGGGACUUCAAUTT against Trp73", "z-score": "active: 2.97"}
{"sequence": "GGAUAAUGGUAUCUACUUCTT against Cd79b", "z-score": "inactive: 1.28"}
{"sequence": "GGAAUGGUUUGGUGAGUUUTT against Pramel1", "z-score": "inactive: 0.859"}
{"sequence": "GGUCUUUCCAAUGUUCACATT against Nos1", "z-score": "inactive: -0.6"}
{"sequence": "GGUACAAAGCCAUUGUACGTT against Grpr", "z-score": "inactive: -0.381"}
{"sequence": "CCAUGAGUUAGUGUUCGGUTT against Blmh", "z-score": "inactive: -1.42"}
{"sequence": "GGUGAUUCGUCAGAAGCUGTT against Gpr84", "z-score": "inactive: -0.61"}
{"sequence": "GCACAUAGCCGACACCUACTT against Hsdl1", "z-score": "inactive: 0.465"}
{"sequence": "GGUUGAUGAUAGCUCUGAATT against Opn1mw", "z-score": "inactive: -0.22"}
{"sequence": "GCGGAUGCAAAUCGAUGAATT against Cep135", "z-score": "inactive: -0.507"}
{"sequence": "GCAUGAUCUCAGGUGUUUGTT against Timm13", "z-score": "inactive: -1.54"}
{"sequence": "CCCUAAGACGAAGGAAAUGTT against Pdrg1", "z-score": "inactive: -0.844"}
{"sequence": "GCUUUACGGUCAAUUAGCCTT against Nr2e1", "z-score": "inactive: 0.0117"}
{"sequence": "CCAAAAUGGAAUGCUCUUCTT against Zfp944", "z-score": "inactive: -0.658"}
{"sequence": "UAGUCAUCUUCAUUCUCCUTT against Olfr1251", "z-score": "inactive: -0.821"}
{"sequence": "GGUGGAUGUGUCAGAAUACTT against Alox15", "z-score": "inactive: -0.134"}
{"sequence": "GGUCUUACGAGUAUUUUUUTT against Rnft1", "z-score": "inactive: -0.331"}
{"sequence": "GCAUAACAUGCUCUUCCAUTT against Mtmr1", "z-score": "inactive: 1.56"}
{"sequence": "GGAACAAGCUGUCUUAGAGTT against Olfr157", "z-score": "inactive: 1.34"}
{"sequence": "GGGAUUCUCCAAAAGGAAGTT against Arhgap6", "z-score": "inactive: 0.856"}
{"sequence": "CGGAUACAGGUUCGGGUAATT against Nemp1", "z-score": "inactive: 1.06"}
{"sequence": "CCACUCAACUAGAUUAUUGTT against Wdr20", "z-score": "inactive: -0.276"}
{"sequence": "GGAAACCCAAUAUCAAACUTT against Rnf138", "z-score": "inactive: 0.252"}
{"sequence": "GGACCUUUCAUCAACCCAUTT against Olfr676", "z-score": "active: 2.13"}
{"sequence": "GGACUCACCCUGAGAGAUUTT against Abca4", "z-score": "inactive: 0.132"}
{"sequence": "GCUUGGUGUAAUCAUGCGCTT against Prl7d1", "z-score": "inactive: 0.314"}
{"sequence": "GGGUCAUGUGAGCCAAUUUTT against Tcf20", "z-score": "inactive: -0.569"}
{"sequence": "GGACAUACCGAGAAGAUUGTT against Dmac1", "z-score": "inactive: -1.25"}
{"sequence": "GGUCCUGUCUUUACAAUGUTT against Eml6", "z-score": "inactive: 1.76"}
{"sequence": "GCGUGAAGGAGCACAGAUUTT against 4933409K07Rik", "z-score": "inactive: 0.678"}
{"sequence": "GCCGAUGAAGUAAAUUUACTT against Klhl32", "z-score": "inactive: 0.221"}
{"sequence": "GGUGUGAUGCAUCAAGUCATT against Trip12", "z-score": "inactive: 0.696"}
{"sequence": "GCUCUUUUUAACACUCUUATT against Bace1", "z-score": "inactive: 0.261"}
{"sequence": "GGCAGACAUGAAAUGCAUUTT against Osgin2", "z-score": "inactive: 0.79"}
{"sequence": "GCCUGACAGAAUUAUUUGCTT against Trnt1", "z-score": "inactive: -1.21"}
{"sequence": "GGAAAAAGACCAUCUGUGGTT against Plk3", "z-score": "inactive: -1.63"}
{"sequence": "GCCACUGUUGUGUAAACUATT against Rap2a", "z-score": "active: 2.01"}
{"sequence": "GGUAAUUGGUAGAACAGUUTT against Olfr837", "z-score": "inactive: -0.53"}
{"sequence": "CCAAGAAGGUUGGGAAAGCTT against Rpl34", "z-score": "inactive: -0.781"}
{"sequence": "CCGUUACAAACCAAGACCUTT against Flt3", "z-score": "inactive: -0.716"}
{"sequence": "GGAUACUGUGUGGUCAUGUTT against Zfp60", "z-score": "inactive: -1.26"}
{"sequence": "GGAAGUGAAUAUUGAGUUUTT against Bccip", "z-score": "active: 2.04"}
{"sequence": "GAUCUUCCUGACAGUGGUGTT against Psors1c2", "z-score": "inactive: -0.15"}
{"sequence": "GCUCACCCUAUUUGCUGCCTT against Kcnj15", "z-score": "inactive: 0.533"}
{"sequence": "GGAGCUCUGUGAAUCUCUUTT against Ska1", "z-score": "inactive: -0.796"}
{"sequence": "GGGUAUGACAACAAACUUCTT against Gabrg2", "z-score": "inactive: -0.422"}
{"sequence": "CGAACACUCGUUAAAGAAATT against Krt23", "z-score": "inactive: 0.247"}
{"sequence": "GGAUCAAGAAACCAGACUATT against Mrpl23", "z-score": "inactive: 0.131"}
{"sequence": "CCUGUCGACCUUAUUGUAATT against Vmn1r215", "z-score": "inactive: -1.96"}
{"sequence": "GCUCUCUUGUGCUCCAACATT against Olfr531", "z-score": "inactive: -0.143"}
{"sequence": "CCUGCUUGCCAACACCAUATT against Slc39a13", "z-score": "active: -2.2"}
{"sequence": "GGCUGCUAAUUGGAUUUUUTT against Ccnj", "z-score": "inactive: -0.936"}
{"sequence": "GCAGUCAAUGAACAUGUUGTT against Emc7", "z-score": "inactive: -1.4"}
{"sequence": "GGGCUACAUGCCAUAUUUATT against Swap70", "z-score": "inactive: 1.09"}
{"sequence": "GGUUCACAUCCUCCUCAGATT against Twist2", "z-score": "inactive: 1.08"}
{"sequence": "CCUCUUUUUCUGUUACCGCTT against Tbc1d25", "z-score": "inactive: -0.295"}
{"sequence": "GCCAAUGAUGUAGCAAAUUTT against Slc20a1", "z-score": "inactive: 1.71"}
{"sequence": "GGUCAUGGCUACUUCAUCCTT against Dok7", "z-score": "inactive: 0.583"}
{"sequence": "GGUCAUUAUUGUCAUCUACTT against Tmem9", "z-score": "inactive: -0.323"}
{"sequence": "GCUGUGAUCUGAGGAGACUTT against Igf1", "z-score": "inactive: 0.312"}
{"sequence": "GGAGCUGUUCUCUGAAAUGTT against Ift27", "z-score": "inactive: 1.07"}
{"sequence": "GGUUCCACUCAUUGUCUCGTT against Fndc5", "z-score": "inactive: -0.573"}
{"sequence": "GGCCUAGAUCAAUACCAAGTT against 4930433I11Rik", "z-score": "inactive: -0.809"}
{"sequence": "GAUAUGGAGGGCUAUGAUUTT against D2hgdh", "z-score": "inactive: -0.294"}
{"sequence": "GGUUUUGUAAUGUACAAACTT against Tada3", "z-score": "inactive: -0.575"}
{"sequence": "GGAACACUAAAACUCAACUTT against Gpr146", "z-score": "inactive: -0.948"}
{"sequence": "UUUAUACCAAUGCUGUACGTT against Gm5334", "z-score": "inactive: 0.121"}
{"sequence": "CGUUUUCUCCUUCGAUCUUTT against Sema6c", "z-score": "inactive: 0.643"}
{"sequence": "CCUAAUUAAGGUUUCUGUUTT against C8a", "z-score": "inactive: 0.0122"}
{"sequence": "GCCAGAAUGGACUUGAGAATT against Vmn1r227", "z-score": "inactive: -1.21"}
{"sequence": "CCCGGGUGUUUUUGCCUAUTT against Kcnc4", "z-score": "inactive: 0.444"}
{"sequence": "GGUUAUUACGUAGUUGGUATT against Cd46", "z-score": "inactive: 0.683"}
{"sequence": "GGCGAUACCUAAAACAUCUTT against Noxa1", "z-score": "inactive: 1.09"}
{"sequence": "GGUCAUUGGCACCAACAAGTT against Tgfbi", "z-score": "inactive: -0.722"}
{"sequence": "CCCAAAGGUCUAAUGUAAATT against Prok2", "z-score": "inactive: -0.501"}
{"sequence": "GGAGGAAUUCAUUAGAAACTT against Psmc1", "z-score": "active: -2.04"}
{"sequence": "GGUGGACCUAGGUAACAUGTT against Cyp2d9", "z-score": "inactive: -0.0997"}
{"sequence": "GGGAUUUCUGGUUUACUUCTT against Nudcd3", "z-score": "inactive: 1.93"}
{"sequence": "GCAUGAUCCUUCAUAACAUTT against Armc12", "z-score": "inactive: -0.0732"}
{"sequence": "CCAAGAAUCAAGCUGUGAATT against Arpc5l", "z-score": "inactive: -0.334"}
{"sequence": "GGAAAAUCACUGAAAAGUATT against St6galnac1", "z-score": "inactive: -0.196"}
{"sequence": "GGAACUGCUGUGCAGUUUUTT against Tmem179b", "z-score": "inactive: 1.4"}
{"sequence": "GGUCAUUCAUAAAGAUUGATT against Kcnma1", "z-score": "inactive: -1.9"}
{"sequence": "GGAAUUAAGGUAGAGGUUATT against Ms4a6d", "z-score": "inactive: -0.174"}
{"sequence": "CCCUGGCUGAGUGCUUUGUTT against Olfr199", "z-score": "inactive: 0.887"}
{"sequence": "GGAGGAAAACAAACCACAGTT against Tpbpa", "z-score": "inactive: 0.0817"}
{"sequence": "GGUGCAAUUAUUUGAUCAUTT against Ptprb", "z-score": "inactive: -0.314"}
{"sequence": "GCAUGAUGGUGCGCUUAAGTT against Ngdn", "z-score": "inactive: -0.187"}
